Results are given in words; binding and its absence hold for the method and conditions named. Some entries that bind do so weakly or less than the wild type.
Legend:
[1] = biological target: GST-GRIP1, the three receptor interaction domains of mouse GRIP1 (Arg 625 - Lys 765) fused to glutathione-S-transferase (mouse) (UniProt Q61026); experiment: electrophoretic mobility shift, DR1 probe, LG268 0-1000 nM
[2] = biological target: GST-GRIP1, the three receptor interaction domains of mouse GRIP1 (Arg 625 - Lys 765) fused to glutathione-S-transferase (mouse) (UniProt Q61026); experiment: electrophoretic mobility shift, DR1 probe, LG268 (Figure 3 legend)

Amino acid sequences for entries named in this document (tags omitted). Residues count along the entry.
UniProt Q61026, residues 625-765: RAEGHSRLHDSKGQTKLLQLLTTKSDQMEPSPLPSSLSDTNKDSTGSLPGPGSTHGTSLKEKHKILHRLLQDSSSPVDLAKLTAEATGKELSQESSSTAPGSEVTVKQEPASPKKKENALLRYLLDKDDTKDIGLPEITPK

binding [1]: binds
binding [2]: binds
B1: human RXRα (9-cis retinoic acid receptor), full-length, wild type (receptor, UniProt P19793 1-462, looked up)
chain: MDTKHFLPLDFSTQVNSSLTSPTGRGSMAAPSLHPSLGPGIGSPGQLHSPISTLSSPINGMGPPFSVISSPMGPHSMSVPTTPTLGFSTGSPQLSSPMNPVSSSEDIKPPLGLNGVLKVPAHPSGNMASFTKHICAICGDRSSGKHYGVYSCEGCKGFFKRTVRKDLTYTCRDNKDCLIDKRQRNRCQYCRYQKCLAMGMKREAVQEERQRGKDRNENEVESTSSANEDMPVERILEAELAVEPKTETYVEANMGLNPSSPNDPVTNICQAADKQLFTLVEWAKRIPHFSELPLDDQVILLRAGWNELLIASFSHRSIAVKDGILLATGLHVHRNSAHSAGVGAIFDRVLTELVSKMRDMQMDKTELGCLRAIVLFNPDSKGLSNPAEVEALREKVYASLEAYCKHKYPEQPGRFAKLLLRLPALRSIGLKCLEHLFFFKLIGDTPIDTFLMEMLEAPHQMT
notes: mature; also called wild-type RXR
